Data taken from article PMC3420917, “A Combinatorial Amino Acid Code for RNA Recognition by Pentatricopeptide Repeat Proteins” (PLoS Genetics, 2012).
Results are given in words; binding and its absence hold for the method and conditions named.

Target: Recombinant PPR10 (maize) (UniProt B8Y6I0)
Test: condition: only with 3 µM 17-nt minimal RNA ligand (equimolar with 3 µM rPPR10); AUC; sedimentation velocity; rPPR10 at 3 µM with its 17-nt minimal RNA ligand at 3 µM (equimolar, saturating); 20°C, 50,000 rpm, interference optics; 250 mM NaCl, 50 mM Tris-HCl pH 7.5, 5 mM ß-mercaptoethanol; both purified

binding: no binding
B1: Recombinant PPR10 (natural protein, maize, UniProt B8Y6I0 96-786, looked up)
chain: ASRRDELLRADITSLLKALELSGHWEWALALLRWAGKEGAADASALEMVVRALGREGQHDAVCALLDETPLPPGSRLDVRAYTTVLHALSRAGRYERALELFAELRRQGVAPTLVTYNVVLDVYGRMGRSWPRIVALLDEMRAAGVEPDGFTASTVIAACCRDGLVDEAVAFFEDLKARGHAPCVVTYNALLQVFGKAGNYTEALRVLGEMEQNGCQPDAVTYNELAGTYARAGFFEEAARCLDTMASKGLLPNAFTYNTVMTAYGNVGKVDEALALFDQMKKTGFVPNVNTYNLVLGMLGKKSRFTVMLEMLGEMSRSGCTPNRVTWNTMLAVCGKRGMEDYVTRVLEGMRSCGVELSRDTYNTLIAAYGRCGSRTNAFKMYNEMTSAGFTPCITTYNALLNVLSRQGDWSTAQSIVSKMRTKGFKPNEQSYSLLLQCYAKGGNVAGIAAIENEVYGSGAVFPSWVILRTLVIANFKCRRLDGMETAFQEVKARGYNPDLVIFNSMLSIYAKNGMYSKATEVFDSIKRSGLSPDLITYNSLMDMYAKCSESWEAEKILNQLKCSQTMKPDVVSYNTVINGFCKQGLVKEAQRVLSEMVADGMAPCAVTYHTLVGGYSSLEMFSEAREVIGYMVQHGLKPMELTYRRVVESYCRAKRFEEARGFLSEVSETDLDFDKKALEAYIEDAQFGR
notes: PPR10, maize chloroplast pentatricopeptide repeat protein (19 PPR motifs); mature PPR10 lacking the plastid targeting peptide; monomeric molecular weight of rPPR10 printed as 82.6 kDa; also called rPPR10
